Where a chain is given by its changes, count along the chain named. Results are given in words; binding and its absence hold for the method and conditions named. For part of these data: In cells and extracts the contact can be indirect. Some binding calls cover weakened binding; strength is not graded here. For part of these data: Where a sequence is shown, tags or fusion partners need not be part of it.
B1: PTPN1-mCherry (plasmid pPTP1BD181A-mCherry) (enzyme, UniProt P18031 1-435)
chain: MEMEKEFEQIDKSGSWAAIYQDIRHEASDFPCRVAKLPKNKNRNRYRDVSPFDHSRIKLHQEDNDYINASLIKMEEAQRSYILTQGPLPNTCGHFWEMVWEQKSRGVVMLNRVMEKGSLKCAQYWPQKEEKEMIFEDTNLKLTLISEDIKSYYTVRQLELENLTTQETREILHFHYTTWPAFGVPESPASFLNFLFKVRESGSLSPEHGPVVVHCSAGIGRSGTFCLADTCLLLMDKRKDPSSVDIKKVLLEMRKFRMGLIQTADQLRFSYLAVIEGAKFIMGDSSVQDQWKELSHEDLEPPPEHIPPPPRPPKRILEPHNGKCREFFPNHQWVKEETQEDKDCPIKEEKGSPLNAAPYGIESMSQDTEVRSRVVGGSLRGAQAASPAKGEPSLPEKDEDHALSYWKPFLVNMCVATVLTAGAYLCYRFLFNSNT
B2: Gal4 Activation Domain-HNRNPL (prey, pP7) (protein, UniProt P14866 1-589)
chain: MSRRLLPRAEKRRRRLEQRQQPDEQRRRSGAMVKMAAAGGGGGGGRYYGGGSEGGRAPKRLKTDNAGDQHGGGGGGGGGAGAAGGGGGGENYDDPHKTPASPVVHIRGLIDGVVEADLVEALQEFGPISYVVVMPKKRQALVEFEDVLGACNAVNYAADNQIYIAGHPAFVNYSTSQKISRPGDSDDSRSVNSVLLFTILNPIYSITTDVLYTICNPCGPVQRIVIFRKNGVQAMVEFDSVQSAQRAKASLNGADIYSGCCTLKIEYAKPTRLNVFKNDQDTWDYTNPNLSGQGDPGSNPNKRQRQPPLLGDHPAEYGGPHGGYHSHYHDEGYGPPPPHYEGRRMGPPVGGHRRGPSRYGPQYGHPPPPPPPPEYGPHADSPVLMVYGLDQSKMNCDRVFNVFCLYGNVEKVKFMKSKPGAAMVEMADGYAVDRAITHLNNNFMFGQKLNVCVSKQPAIMPGQSYGLEDGSCSYKDFSESRNNRFSTPEQAAKNRIQHPSNVLHFFNAPLEVTEENFFEICDELGVKRPSSVKVFSGKSERSSSGLLEWESKSDALETLGFLNHYQMKNPNGPYPYTLKLCFSTAQHAS
B3: Gal4 Activation Domain-RPN1 (prey, pP7) (protein, UniProt P04843 1-607)
chain: MEAPAAGLFLLLLLGTWAPAPGSASSEAPPLINEDVKRTVDLSSHLAKVTAEVVLAHLGGGSTSRATSFLLALEPELEARLAHLGVQVKGEDEEENNLEVRETKIKGKSGRFFTVKLPVALDPGAKISVIVETVYTHVLHPYPTQITQSEKQFVVFEGNHYFYSPYPTKTQTMRVKLASRNVESYTKLGNPTRSEDLLDYGPFRDVPAYSQDTFKVHYENNSPFLTITSMTRVIEVSHWGNIAVEENVDLKHTGAVLKGPFSRYDYQRQPDSGISSIRSFKTILPAAAQDVYYRDEIGNVSTSHLLILDDSVEMEIRPRFPLFGGWKTHYIVGYNLPSYEYLYNLGDQYALKMRFVDHVFDEQVIDSLTVKIILPEGAKNIEIDSPYEISRAPDELHYTYLDTFGRPVIVAYKKNLVEQHIQDIVVHYTFNKVLMLQEPLLVVAAFYILFFTVIIYVRLDFSITKDPAAEARMKVACITEQVLTLVNKRIGLYRHFDETVNRYKQSRDISTLNSGKKSLETEHKALTSEIALLQSRLKTEGSDLCDRVSEMQKLDAQVKELVLKSAVEAERLVAGKLKKDTYIENEKLISGKRQELVTKIDHILDAL
B4: Gal4 Activation Domain-PDIA4 (prey, pP7) (protein, UniProt P13667 1-645)
chain: MRPRKAFLLLLLLGLVQLLAVAGAEGPDEDSSNRENAIEDEEEEEEEDDDEEEDDLEVKEENGVLVLNDANFDNFVADKDTVLLEFYAPWCGHCKQFAPEYEKIANILKDKDPPIPVAKIDATSASVLASRFDVSGYPTIKILKKGQAVDYEGSRTQEEIVAKVREVSQPDWTPPPEVTLVLTKENFDEVVNDADIILVEFYAPWCGHCKKLAPEYEKAAKELSKRSPPIPLAKVDATAETDLAKRFDVSGYPTLKIFRKGRPYDYNGPREKYGIVDYMIEQSGPPSKEILTLKQVQEFLKDGDDVIIIGVFKGESDPAYQQYQDAANNLREDYKFHHTFSTEIAKFLKVSQGQLVVMQPEKFQSKYEPRSHMMDVQGSTQDSAIKDFVLKYALPLVGHRKVSNDAKRYTRRPLVVVYYSVDFSFDYRAATQFWRSKVLEVAKDFPEYTFAIADEEDYAGEVKDLGLSESGEDVNAAILDESGKKFAMEPEEFDSDTLREFVTAFKKGKLKPVIKSQPVPKNNKGPVKVVVGKTFDSIVMDPKKDVLIEFYAPWCGHCKQLEPVYNSLAKKYKGQKGLVIAKMDATANDVPSDRYKVEGFPTIYFAPSGDKKNPVKFEGGDRDLEHLSKFIEEHATKLSRTKEEL
B5: Gal4 Activation Domain-PTPN1 (prey, pP7, AD-prey) (enzyme, UniProt P18031 1-435)
chain: B1 chain with A181D
B6: PTPN1-Gal4 Activation Domain (prey, pP13, prey-AD) (enzyme, UniProt P18031 1-435)
chain: B1 chain with A181D
B7: Gal4 Activation Domain-UPF1 (prey, pP7) (protein, UniProt Q92900 1-1129)
chain: MSVEAYGPSSQTLTFLDTEEAELLGADTQGSEFEFTDFTLPSQTQTPPGGPGGPGGGGAGGPGGAGAGAAAGQLDAQVGPEGILQNGAVDDSVAKTSQLLAELNFEEDEEDTYYTKDLPIHACSYCGIHDPACVVYCNTSKKWFCNGRGNTSGSHIVNHLVRAKCKEVTLHKDGPLGETVLECYNCGCRNVFLLGFIPAKADSVVVLLCRQPCASQSSLKDINWDSSQWQPLIQDRCFLSWLVKIPSEQEQLRARQITAQQINKLEELWKENPSATLEDLEKPGVDEEPQHVLLRYEDAYQYQNIFGPLVKLEADYDKKLKESQTQDNITVRWDLGLNKKRIAYFTLPKTDSGNEDLVIIWLRDMRLMQGDEICLRYKGDLAPLWKGIGHVIKVPDNYGDEIAIELRSSVGAPVEVTHNFQVDFVWKSTSFDRMQSALKTFAVDETSVSGYIYHKLLGHEVEDVIIKCQLPKRFTAQGLPDLNHSQVYAVKTVLQRPLSLIQGPPGTGKTVTSATIVYHLARQGNGPVLVCAPSNIAVDQLTEKIHQTGLKVVRLCAKSREAIDSPVSFLALHNQIRNMDSMPELQKLQQLKDETGELSSADEKRYRALKRTAERELLMNADVICCTCVGAGDPRLAKMQFRSILIDESTQATEPECMVPVVLGAKQLILVGDHCQLGPVVMCKKAAKAGLSQSLFERLVVLGIRPIRLQVQYRMHPALSAFPSNIFYEGSLQNGVTAADRVKKGFDFQWPQPDKPMFFYVTQGQEEIASSGTSYLNRTEAANVEKITTKLLKAGAKPDQIGIITPYEGQRSYLVQYMQFSGSLHTKLYQEVEIASVDAFQGREKDFIILSCVRANEHQGIGFLNDPRRLNVALTRARYGVIIVGNPKALSKQPLWNHLLNYYKEQKVLVEGPLNNLRESLMQFSKPRKLVNTINPGARFMTTAMYDAREAIIPGSVYDRSSQGRPSSMYFQTHDQIGMISAGPSHVAAMNIPIPFNLVMPPMPPPGYFGQANGPAAGRGTPKGKTGRGGRQKNRFGLPGPSQTNLPNSQASQDVASQPFSQGALTQGYISMSQPSQMSQPGLSQPELSQDSYLGDEFKSQIDVALSQDSTYQGERAYQHGGVTGLSQY

The chains behind the UniProt entries cited, without tags or fusion partners. Where a name states a change or a piece, a line headed by the entry shows the natural chain unless it says otherwise. A line that says so, or that is headed by a name, gives the form on record, which may keep a tag or linker. Residues count along the entry.
UniProt O75460: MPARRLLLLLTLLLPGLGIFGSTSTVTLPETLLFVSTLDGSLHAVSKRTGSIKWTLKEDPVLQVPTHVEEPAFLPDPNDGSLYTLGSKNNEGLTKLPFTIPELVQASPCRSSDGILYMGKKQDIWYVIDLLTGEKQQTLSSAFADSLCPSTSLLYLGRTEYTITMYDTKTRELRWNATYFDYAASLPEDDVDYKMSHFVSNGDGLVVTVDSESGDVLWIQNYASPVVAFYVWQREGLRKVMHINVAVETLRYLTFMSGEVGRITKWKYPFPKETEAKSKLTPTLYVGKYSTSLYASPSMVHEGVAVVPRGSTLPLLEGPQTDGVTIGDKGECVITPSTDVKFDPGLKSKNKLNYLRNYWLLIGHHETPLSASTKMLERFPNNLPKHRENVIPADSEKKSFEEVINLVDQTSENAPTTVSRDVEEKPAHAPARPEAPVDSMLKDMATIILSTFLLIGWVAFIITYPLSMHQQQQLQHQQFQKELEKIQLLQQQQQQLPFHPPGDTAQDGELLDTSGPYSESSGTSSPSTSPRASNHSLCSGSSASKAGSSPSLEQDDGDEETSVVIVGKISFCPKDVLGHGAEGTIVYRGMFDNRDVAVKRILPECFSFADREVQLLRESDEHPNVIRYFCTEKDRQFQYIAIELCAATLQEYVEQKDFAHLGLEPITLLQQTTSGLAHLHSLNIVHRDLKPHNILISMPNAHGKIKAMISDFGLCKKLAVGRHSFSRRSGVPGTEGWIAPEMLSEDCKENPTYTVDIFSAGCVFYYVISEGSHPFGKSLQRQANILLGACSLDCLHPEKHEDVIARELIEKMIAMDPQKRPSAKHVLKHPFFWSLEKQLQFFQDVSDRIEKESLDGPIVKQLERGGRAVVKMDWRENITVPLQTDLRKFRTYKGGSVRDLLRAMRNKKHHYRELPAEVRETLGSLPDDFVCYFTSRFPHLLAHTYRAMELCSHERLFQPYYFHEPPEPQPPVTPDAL
Flagged IRE1 WT: residues 19-977 of O75460
Flagged IRE1 N683D mutant (O75460, form named): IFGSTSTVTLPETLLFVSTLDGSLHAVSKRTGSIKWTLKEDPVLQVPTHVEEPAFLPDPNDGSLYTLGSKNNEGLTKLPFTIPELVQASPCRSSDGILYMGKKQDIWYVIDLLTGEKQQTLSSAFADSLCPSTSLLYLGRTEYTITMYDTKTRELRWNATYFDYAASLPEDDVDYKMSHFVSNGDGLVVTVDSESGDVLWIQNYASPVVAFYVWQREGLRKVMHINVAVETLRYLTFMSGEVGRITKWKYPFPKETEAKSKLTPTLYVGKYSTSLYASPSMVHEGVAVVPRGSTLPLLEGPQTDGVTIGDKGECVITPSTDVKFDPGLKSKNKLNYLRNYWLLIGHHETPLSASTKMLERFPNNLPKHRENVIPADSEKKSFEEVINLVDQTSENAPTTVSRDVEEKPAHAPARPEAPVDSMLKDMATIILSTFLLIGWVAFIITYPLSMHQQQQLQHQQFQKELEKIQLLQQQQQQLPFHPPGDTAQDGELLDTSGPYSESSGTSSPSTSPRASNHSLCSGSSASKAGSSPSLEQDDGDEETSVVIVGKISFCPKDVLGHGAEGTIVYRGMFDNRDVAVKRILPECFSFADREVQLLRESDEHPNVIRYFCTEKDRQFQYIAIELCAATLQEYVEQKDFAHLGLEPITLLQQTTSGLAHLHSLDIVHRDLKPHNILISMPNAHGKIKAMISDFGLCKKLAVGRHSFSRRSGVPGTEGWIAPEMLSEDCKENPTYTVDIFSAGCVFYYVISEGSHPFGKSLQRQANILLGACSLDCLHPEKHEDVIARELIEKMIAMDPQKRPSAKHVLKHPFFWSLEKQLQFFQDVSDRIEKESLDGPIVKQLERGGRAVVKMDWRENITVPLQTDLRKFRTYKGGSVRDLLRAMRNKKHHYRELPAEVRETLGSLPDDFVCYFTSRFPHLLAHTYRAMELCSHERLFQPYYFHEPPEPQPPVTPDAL
UniProt P53618: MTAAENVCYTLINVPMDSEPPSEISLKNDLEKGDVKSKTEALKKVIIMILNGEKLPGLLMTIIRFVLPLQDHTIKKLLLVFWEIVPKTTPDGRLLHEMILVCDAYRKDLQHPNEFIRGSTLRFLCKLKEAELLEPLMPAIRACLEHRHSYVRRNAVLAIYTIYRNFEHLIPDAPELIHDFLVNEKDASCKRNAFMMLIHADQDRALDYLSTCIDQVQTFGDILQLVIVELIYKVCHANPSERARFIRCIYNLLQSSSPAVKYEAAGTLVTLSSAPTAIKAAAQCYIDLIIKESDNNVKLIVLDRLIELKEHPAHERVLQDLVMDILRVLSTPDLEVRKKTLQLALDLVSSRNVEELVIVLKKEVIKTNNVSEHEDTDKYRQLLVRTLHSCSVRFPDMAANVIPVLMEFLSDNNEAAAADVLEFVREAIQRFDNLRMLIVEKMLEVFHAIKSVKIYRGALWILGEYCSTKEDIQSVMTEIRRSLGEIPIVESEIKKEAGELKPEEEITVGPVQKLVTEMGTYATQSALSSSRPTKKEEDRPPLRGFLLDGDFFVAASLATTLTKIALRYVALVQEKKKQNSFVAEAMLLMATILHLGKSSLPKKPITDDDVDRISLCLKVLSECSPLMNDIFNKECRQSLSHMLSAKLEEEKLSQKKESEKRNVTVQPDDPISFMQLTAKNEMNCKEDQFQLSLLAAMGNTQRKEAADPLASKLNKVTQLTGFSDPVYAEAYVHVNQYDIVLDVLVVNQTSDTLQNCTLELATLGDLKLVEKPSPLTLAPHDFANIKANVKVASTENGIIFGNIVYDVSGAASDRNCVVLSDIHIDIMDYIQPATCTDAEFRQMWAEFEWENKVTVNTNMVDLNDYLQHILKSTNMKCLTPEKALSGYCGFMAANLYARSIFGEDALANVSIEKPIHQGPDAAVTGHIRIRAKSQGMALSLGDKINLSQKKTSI

Target: Flagged IRE1 N683D mutant (human) (UniProt O75460)
Experiment: co-IP

Row | Molecule | binding
1 | B1 | binds

Target: Flagged IRE1 WT (human) (UniProt O75460)
Experiment: co-IP

Row | Molecule | binding
2 | B1 | binds

Target: Gal4 DNA binding domain-IRE1 K599A (bait, pB66) (human) (UniProt O75460)
Experiment: two-hybrid

Row | Molecule | binding
3 | Gal4 Activation Domain-COPB1 (prey, pP7) (from UniProt P53618 1-953) | binds
4 | B2 | no binding
5 | B3 | no binding
6 | B4 | no binding
7 | B5 | no binding
8 | B6 | no binding
9 | B7 | no binding

From paper doi:10.1101/2024.10.27.620453
